Test results taken from paper PMC12256856.
Results are given in words; binding and its absence hold for the method and conditions named. In cells and extracts the contact can be indirect. Some binding calls cover weakened binding; strength is not graded here. Tags and fused reporters may be left off the sequences shown.

T1: GST-Rim1^1-200 fusion protein (Rab3 interaction domain of Rab3 interacting molecule 1) (UniProt Q9JIR4)
T1 sequence: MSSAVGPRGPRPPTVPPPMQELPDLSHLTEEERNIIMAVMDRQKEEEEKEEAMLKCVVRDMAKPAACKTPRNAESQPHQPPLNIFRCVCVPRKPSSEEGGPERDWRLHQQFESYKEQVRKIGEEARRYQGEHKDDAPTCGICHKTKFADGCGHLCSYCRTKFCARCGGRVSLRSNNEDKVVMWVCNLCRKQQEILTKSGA


Target: T1, GST-Rim1^1-200 fusion protein (Rab3 interaction domain of Rab3 interacting molecule 1)
Assay: pull-down; GST-Rim1 1-200 as bait; lysates of NRCMs expressing GFP-Rab3a in magnesium lysis buffer (25 mM HEPES pH 7.5, 150 mM NaCl, 1% Igepal CA630, 10 mM MgCl2, 1 mM EDTA, 2% glycerol); anti-GFP immunoblot; cells treated with PBS or phenylephrine (10 uM) for 3 or 24 h with or without FR900359 (1 uM); only the target purified

| Binder | binding |
| --- | --- |
| GFP-tagged wild-type Rab3a (protein, UniProt P20336 1-220) MASATDSRYGQKESSDQNFDYMFKILIIGNSSVGKTSFLFRYADDSFTPAFVSTVGIDFKVKTIYRNDKRIKLQIWDTAGQERYRTITTAYYRGAMGFILMYDITNEESFNAVQDWSTQIKTYSWDNAQVLLVGNKCDMEDERVVSSERGRQLADHLGFEFFEASAKDNINVKQTFERLVDVICEKMSESLDTADPAVTGAKQGPQLSDQQVPPHQDCAC | binds |
| GFP-tagged constitutively active GTP-bound Rab3a (Rab3a^Q81L) (protein, UniProt P20336 1-220) MASATDSRYGQKESSDQNFDYMFKILIIGNSSVGKTSFLFRYADDSFTPAFVSTVGIDFKVKTIYRNDKRIKLQIWDTAGLERYRTITTAYYRGAMGFILMYDITNEESFNAVQDWSTQIKTYSWDNAQVLLVGNKCDMEDERVVSSERGRQLADHLGFEFFEASAKDNINVKQTFERLVDVICEKMSESLDTADPAVTGAKQGPQLSDQQVPPHQDCAC | binds |
